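CellTiter-Glo luminescence measures how many UOK109 TFE3-RCC cells stay viable after two days of treatment.
Each compound was run as a concentration series, and the potency comes from that titration.
The number is the fitted AC50 for loss of viability; a lower value means a more potent compound.
All of these compounds are filed inconclusive. An active call needs an area-under-curve z-score below -0.8 in all three TFE3-fusion lines, and an inactive call needs flat class-4 curves in all three.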

Values are in µM.
Every entry below has the call inconclusive.
Only part of the assay is shown, chiefly results filed as inconclusive.
A potency from a partial, single-point or poor curve is only a rough figure.
Some entries filed as inconclusive have a full curve.
Activity scores are not listed here.

| structure | setting | fitted potency (µM) | curve |
|---|---|---|---|
| `Nc1ccccc1NC(=O)c1ccc(CNC(=O)OCc2cccnc2)cc1` | active = Z-AUC below -0.8 in all three lines | 2.635 | falling, partial curve |
| `c1ccc2c(CCNc3ccc(Nc4ccncc4)cc3)c[nH]c2c1` | active = Z-AUC below -0.8 in all three lines | 18.65 | falling, partial curve |
| `O=C(N[C@@H](COc1ccc2[nH]c(=O)[nH]c2c1)c1ccccc1)c1cccn(Cc2ccc(F)c(F)c2)c1=O` | - | 23.48 | falling, single point |
| `O=C(O)CCC=CCC[C@@H]1[C@H](N2CCCCC2)[C@@H](O)C[C@@H]1OCc1ccc(-c2ccccc2)cc1` | active = Z-AUC below -0.8 in all three lines | 14.82 | falling, partial curve |
| `Nc1nc(NCCNc2ncc(-n3ccnc3)c(-c3ccc(Cl)cc3Cl)n2)ccc1[N+](=O)[O-]` | active = Z-AUC below -0.8 in all three lines | 0.7427 | falling, full curve |
| `NC(=O)NO` | active = Z-AUC below -0.8 in all three lines | 5.899 | falling, partial curve |
| `C[C@]12CC[C@H]3[C@@H](CCC4=CC(=O)CC[C@@]43C)[C@H]1CC[C@H]2O` | - | 20.93 | falling, single point |
| `COc1ccccc1[C@H](c1cccc2ccccc12)[C@@](C)(C#N)C(=O)N1CCC(c2cccc(C(F)(F)F)c2)CC1` | active = Z-AUC below -0.8 in all three lines | 2.349 | falling, partial curve, poor fit |
| `CN1CCC(COc2cnc(-c3cccc(Cn4nc(-c5cccc(C#N)c5)ccc4=O)c3)nc2)CC1` | active = Z-AUC below -0.8 in all three lines | 0.3317 | falling, full curve |
| `CC(C=CC=C(C)C=CC1=C(C)CCCC1(C)C)=CC=CC=C(C)C=CC=C(C)C=CC1=C(C)CCCC1(C)C` | active = Z-AUC below -0.8 in all three lines | 13.21 | falling, partial curve |
| `COCC1(CO)C(=O)C2CCN1CC2` (stereo not given) | - | 2.635 | falling, full curve |
| `CN(C)CCOc1ccc(C(=C(CCCl)c2ccccc2)c2ccccc2)cc1` | active = Z-AUC below -0.8 in all three lines | 10.49 | falling, partial curve |
| `CCCCc1nc2cc(C=CC(=O)NO)ccc2n1CCN(CC)CC` | active = Z-AUC below -0.8 in all three lines | 7.427 | falling, partial curve |
| `C[C@@H]1C(=O)O[C@H]2CC34[C@H]5C[C@@H](C(C)(C)C)C36[C@H](OC(=O)[C@@H]6O)O[C@@]4(C(=O)O5)[C@]21O` (stereo not given in full) | active = Z-AUC below -0.8 in all three lines | 10.49 | - |
| `Cc1nc(Nc2ncc(C(=O)Nc3c(C)cccc3Cl)s2)cc(N2CCN(CCO)CC2)n1` | active = Z-AUC below -0.8 in all three lines | 0.003722 | falling, full curve |
| `Nc1nc(Nc2ccc(S(N)(=O)=O)cc2)nn1C(=O)c1c(F)cccc1F` | active = Z-AUC below -0.8 in all three lines | 9.35 | falling, full curve |
| `CN(C)CCOc1ccc(-c2nc(-c3ccc4c(c3)CCC4=NO)c(-c3ccncc3)[nH]2)cc1` | active = Z-AUC below -0.8 in all three lines | 23.48 | falling, partial curve |
| `C[C@H]1[C@H](O)O[C@@H]2O[C@@]3(C)CC[C@@H]4[C@H](C)CC[C@@H]1[C@@]24OO3` | active = Z-AUC below -0.8 in all three lines | 20.93 | falling, partial curve |
| `COc1cc(C[C@@H](CO)[C@H](CO)Cc2ccc(O)c(OC)c2)ccc1O` | active = Z-AUC below -0.8 in all three lines | 1.321 | falling, full curve |
| `CCc1cccc(CC)c1NC(=O)N1Cc2[nH]nc(NC(=O)c3ccc(N4CCN(C)CC4)cc3)c2C1` | active = Z-AUC below -0.8 in all three lines | 23.48 | falling, partial curve |
| `CCOc1cc(N2CCC(O)CC2)ccc1Nc1ncc2c(n1)N(C)c1ccccc1C(=O)N2C` | active = Z-AUC below -0.8 in all three lines | 1.177 | falling, full curve |
| `C[C@H](NC(=O)C(C#N)=Cc1cccc(Br)n1)c1ccccc1` | active = Z-AUC below -0.8 in all three lines | 33.17 | falling, single point |
| `O=S(=O)(O)c1ccc2cc(N=Nc3cc(S(=O)(=O)O)c4cccnc4c3O)ccc2c1` | active = Z-AUC below -0.8 in all three lines | 11.77 | falling, partial curve |
| `COc1ccnc2[nH]cc(C(=O)C(=O)N3CCN(C(=O)c4ccccc4)C[C@@H]3C)c12` | active = Z-AUC below -0.8 in all three lines | 1.865 | - |
| `NC(=O)Nc1cc(-c2ccc(CN3CCOCC3)cc2)sc1C(N)=O` | active = Z-AUC below -0.8 in all three lines | 16.63 | falling, partial curve |
| `COc1ccc(C(=O)N2CCCC2=O)cc1` | - | 13.21 | - |
| `O=[N+]([O-])c1ncc[nH]1` | - | 0.02957 | - |
| `C[C@@H]1[C@H](O)[C@@H](C)C=CC=CC=CC=CC=CC=CC=C[C@H](O[C@@H]2O[C@H](C)[C@H](O)[C@H](N)[C@@H]2O)C[C@@H]2O[C@](O)(C[C@@H](O)C[C@@H](O)[C@H](O)CC[C@@H](O)C[C@@H](O)CC(=O)O[C@H]1C)C[C@H](O)[C@@H]2C(=O)O` | active = Z-AUC below -0.8 in all three lines | 9.35 | - |
| `CNc1nc(-c2ccc3c(N)n[nH]c3c2)cc(N2C[C@@H](C(=O)NC3CCCCC3)CC[C@@H]2C)n1` | active = Z-AUC below -0.8 in all three lines | 8.333 | falling, partial curve |
| `NC1(C(=O)N[C@@H](CCO)c2ccc(Cl)cc2)CCN(c2ncnc3[nH]ccc23)CC1` | active = Z-AUC below -0.8 in all three lines | 14.82 | falling, partial curve |
| `Cc1cc(CS(=O)(=O)c2ccccc2)cc(OCc2ccc(CN3CCC[C@H]3CO)cc2)c1` | active = Z-AUC below -0.8 in all three lines | 2.349 | falling, full curve |
| `O=S(=O)(CC1CS1)c1ccc(Oc2ccccc2)cc1` (stereo not given) | - | 20.93 | - |

Some entries from above, unchanged:

- NC(=O)NO [active = Z-AUC below -0.8 in all three lines] | fitted potency 5.899 µM (falling, partial curve)
- CN(C)CCOc1ccc(-c2nc(-c3ccc4c(c3)CCC4=NO)c(-c3ccncc3)[nH]2)cc1 [active = Z-AUC below -0.8 in all three lines] | fitted potency 23.48 µM (falling, partial curve)
- Cc1cc(CS(=O)(=O)c2ccccc2)cc(OCc2ccc(CN3CCC[C@H]3CO)cc2)c1 [active = Z-AUC below -0.8 in all three lines] | fitted potency 2.349 µM (falling, full curve)

Source: PubChem BioAssay AID1963991 (NCATS, 2024).